Laboratory results as given in patent publication US5955423A (priority 1995, dated 1999).
For at least one compound, name, drawing or mass did not settle the structure.

The compounds below were run on tumor (leukemia) and normal cell (CFUGM) lines. Details: μg/disk: 8 30; 5-FU 2.5; VP-16 5.
Assay type: cell-based
In the case of COc1ccc(C[C@H]2NC(=O)/C=C/C[C@@H]([C@H](C)[C@H]3O[C@@H]3c3ccccc3)OC(=O)[C@H](CC(C)C)OC(=O)[C@H](C)CNC2=O)cc1Cl [Cryptophycin 1], the “Type of Cytotoxicity, Valeriote Assay” value is reported as “N”.
With COc1ccc(C[C@H]2NC(=O)/C=C/C[C@@H]([C@H](C)/C=C/c3ccccc3)OC(=O)[C@H](CC(C)C)OC(=O)[C@H](C)CNC2=O)cc1Cl [Cryptophycin 3] the “Type of Cytotoxicity, Valeriote Assay” value was “N”.
In the case of COc1ccc(C[C@H]2NC(=O)/C=C/C[C@@H]([C@H](C)[C@@H](O)[C@@H](Cl)c3ccccc3)OC(=O)[C@H](CC(C)C)OC(=O)[C@H](C)CNC2=O)cc1Cl [Cryptophycin 8], the “Type of Cytotoxicity, Valeriote Assay” value is reported as “N”.
